Reference: PubChem BioAssay AID662 (National Center for Advancing Translational Sciences (NCATS), 2007)
This is one part of the list. The main result of the screen is listed elsewhere. These columns were measured beside it and carry no call. Compounds called inactive in the main read-out are mostly missing here. The note in brackets gives the kind of curve behind each potency; many fits are weak.

Assay: Cell signaling CRE-BLA (Fsk stim)
Conditions: CHO CRE-bla reporter (cAMP response element driving beta-lactamase), forskolin EC10, beta-lactamase ratio; measured here: 460 nm blue channel
Outline: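 Beta-lactamase reporter under a cAMP responsive element in CHO cells; compounds tested in titration series against EC10 NKH 477, 3 h at 37 °C. Read-out: CCF4 FRET ratio 460nm/530nm (excitation 405nm) giving %Activity, fitted to AC50.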

SMILES	AC50
O=C(NC1CC1)C1CCCN(C(=O)Nc2ccc(F)cc2)C1 (stereo not drawn)	25.1 µM [falling, single point]
COc1ccc2c(C=Nc3c(C)n(C)n(-c4ccccc4)c3=O)c(O)n(Cc3ccco3)c(=O)c2c1	2.51 µM [rising, full curve]
COCCn1c(C)cc(C(=O)COC(=O)c2c(C)nn(Cc3ccccc3)c2C)c1C	0.158 µM [falling, partial curve]
COc1ccc(C(=O)Cn2nnc(-c3ccccc3-n3cnnn3)n2)cc1	1.58 µM [falling, partial curve, poor fit]
C=CCOc1nc(N(C)C)nc(N(C)C)n1	12.6 µM [rising, single point]
O=C(NC1CCCCCC1)c1cccs1	0.00398 µM [falling, full curve]
CCOc1ccc(N(CC(=O)N2CCN(c3ccccc3)CC2)S(=O)(=O)c2c(C)noc2C)cc1	12.6 µM [falling, single point]
Cc1ccc(-n2c(SCC(=O)Nc3ccc4cn[nH]c4c3)nnc2-c2ccco2)cc1	25.1 µM [rising, single point]
Fc1cccc(Cl)c1-c1nnc2ccc(N3CCOCC3)nn12	3.98 µM [rising, partial curve]
c1ccc(-c2csc3ncn4cnnc4c23)cc1	1.58 µM [rising, full curve, poor fit]
Cc1cc(NC(=O)CCS(=O)(=O)c2nc(-c3ccccc3)cc(C(F)(F)F)n2)no1	10 µM [falling, partial curve]
O=C(NCc1ccco1)c1cccn2c(=O)c3sccc3nc12	12.6 µM [rising, partial curve, poor fit]
Cc1noc(NS(=O)(=O)c2ccc(NC(=O)CCn3c(=O)oc4ccccc43)cc2)c1C	0.794 µM [falling, full curve]
CCC(=O)N1c2ccc(S(=O)(=O)CCC(=O)Nc3nccs3)cc2CC1C (stereo not drawn)	0.1 µM [falling, full curve, poor fit]
Cn1c(=O)[nH]c(=O)c2c1nc(NCCCO)n2CCCc1ccccc1	12.6 µM [rising, single point]
COc1ccc(-c2cc(C(=O)Nc3ccc(C)cc3)no2)cc1	0.126 µM [falling, full curve, poor fit]
Cc1noc(NS(=O)(=O)c2ccc(NC(=O)CCC3CCCCC3)cc2)c1C	25.1 µM [falling, single point]
N#CC1=C(SCC(=O)NC23CC4CC(CC(C4)C2)C3)NC(=O)C(C#N)C12CCCCC2 (stereo not drawn)	25.1 µM [falling, single point]
CN1/C(=C\C(=O)c2cccs2)Sc2ccccc21	10 µM [rising, partial curve]
Nc1ccnc(C(F)(F)F)c1C(=O)c1ccccc1	0.0316 µM [falling, full curve, poor fit]
Cc1ccc2nc(-c3ccc(SCC(=O)Nc4cc(C)on4)nc3)[nH]c2c1	12.6 µM [rising, single point]
CC(C)c1cc(C(=O)NCc2cccnc2)no1	0.501 µM [falling, full curve, poor fit]
CC(C)(C)c1cc(/C=C(\C#N)C(N)=S)cc(C(C)(C)C)c1O	5.01 µM [falling, full curve]

SMILES	AC50
Cc1cc(-c2ccccc2)nc2cc(C(N)=O)nn12	25.1 µM [rising, single point]
CCc1cccc(NC(=O)CN2C(=O)NC3(CCCCCCC3)C2=O)c1	2.51 µM [rising, full curve, poor fit]
Clc1ccc(OCc2nn3c(C4CCCCC4)nnc3s2)c(Cl)c1	0.631 µM [rising, full curve, poor fit]
O=C(C1CCN(S(=O)(=O)N2CCC3(CC2)OCCO3)CC1)N1CCOCC1	0.0631 µM [falling, partial curve, poor fit]
COc1ccccc1OCCSc1nc2ccccc2c(=O)[nH]1	10 µM [rising, partial curve]
CCn1cc(C(=O)NC2CCCCC2C)c(=O)c2ccc(C)nc21 (stereo not drawn)	3.98 µM [rising, full curve]
CCOc1ccccc1NC(=O)CCN1CCN(S(=O)(=O)c2ccc(OC)cc2)CC1	0.501 µM [rising, full curve, poor fit]
COc1ccccc1C(=O)Nc1nc2ccc(S(C)(=O)=O)cc2s1	3.98 µM [rising, partial curve]
Cn1cc(-c2nc3cnc(N4CCOCC4)nc3n(CCC#N)c2=O)c2ccccc21	6.31 µM [rising, partial curve]
Cc1cc2nnc(SCC(=O)NCc3ccco3)n2c2ccccc12	12.6 µM [rising, partial curve]
O=C(NCCN1CCN(C(=O)NC2CCCCC2)CC1)NC1CCCCC1	5.01 µM [falling, partial curve]
COCc1cc(=O)n2[nH]c(C)cc2n1	0.00316 µM [falling, full curve, poor fit]
Cc1cc2nnc(SC3CCOC3=O)n2c2ccccc12 (stereo not drawn)	10 µM [rising, single point]
CC(O)CCc1nc2ccc(C(=O)O)cc2[nH]1 (stereo not drawn)	25.1 µM [rising, single point]
CC(C)Oc1cccc(C(=O)Nc2ccccc2N2CCOCC2)c1	12.6 µM [rising, partial curve]
Cc1nc2nc(Cc3ccccc3)nn2c(C)c1Cl	7.94 µM [rising, partial curve]
C[C@H](NC(=O)/C(C#N)=C/c1ccc(O)c(O)c1)c1ccccc1	31.6 µM [rising, partial curve]
Cc1cnc(CNc2nc(-c3cccc(NS(C)(=O)=O)c3)nc3ccccc23)cn1	12.6 µM [rising, partial curve]
CC1SC(=NC(=O)c2ccco2)NC1=O (stereo not drawn)	0.631 µM [rising, single point]
CCc1ccc2[nH]c(=O)c(CN(CCN3CCOCC3)C(=O)Nc3ccccc3F)cc2c1	10 µM [rising, partial curve]
COc1ccc(NC(=O)Cc2cccs2)c(OC)c1	0.794 µM [falling, full curve, poor fit]
COC(=O)c1ccccc1NC(=O)Cn1cnc2cc(C)c(C)cc21	0.00316 µM [falling, full curve, poor fit]
Cc1cc(NC(=O)CSc2nnc(C3CC3)n2C)no1	20 µM [falling, single point]

SMILES	AC50
N#CCSc1nc2c(c(C3CC=CCC3)c1C#N)CCC2 (stereo not drawn)	5.01 µM [rising, full curve, poor fit]
Cn1cc(-c2nc3cnc(OCc4ccccc4)nc3n(CCC#N)c2=O)c2ccccc21	10 µM [rising, partial curve]
COc1ccc(-c2coc3cc(O)cc(O)c3c2=O)cc1	0.158 µM [rising, full curve, poor fit]
CCOC(=O)N1CCN(C(=O)c2ccc(NC(=O)c3ccc(C)cc3)cc2)CC1	5.01 µM [falling, partial curve]
CCC(=O)/C=C1\Sc2ccc(OC)cc2N1CC	0.398 µM [rising, full curve, poor fit]
C=CCNc1ncnc2c1cnn2-c1ccc(Cl)cc1	5.01 µM [rising, partial curve]
COc1ccccc1N1CCN(CCN2C(=O)CC3(CCCC3)CC2=O)CC1	1.58 µM [rising, partial curve, poor fit]
CN1CCN(c2ncc3nc(-c4cccc(C#N)c4)c(=O)n(CCc4ccccc4)c3n2)CC1	10 µM [rising, partial curve]
Cc1cc(-c2nnc(-c3cc4ccccc4oc3=O)o2)c(C)n1-c1ccccc1	10 µM [rising, partial curve]
CCOCCn1c(N2CCN(c3ccc(OC)cc3)CC2)nc2c1c(=O)n(C)c(=O)n2C	12.6 µM [rising, single point]
Cc1ccc2cc3cc(C(=O)N(C)C4CCCCC4)oc3nc2c1	0.1 µM [rising, full curve]
CN(Cc1ccco1)c1cc(-c2cccnc2)ncn1	0.316 µM [rising, full curve, poor fit]
Nc1ccc2c(C(F)(F)F)cc(=O)oc2c1	12.6 µM [rising, partial curve]
O=C(CN(Cc1ccco1)C(=O)CNS(=O)(=O)c1ccccc1)NCc1ccccc1	25.1 µM [falling, single point]
O=c1c(-c2cccs2)nc2cnc(N3CCOCC3)nc2n1Cc1cccs1	10 µM [rising, partial curve]
COc1cc2nc(C)sc2cc1SC	5.01 µM [rising, full curve, poor fit]
CCOC(=O)c1c(C)[nH]c(C(=O)NCc2ccccc2OC)c1C	10 µM [rising, partial curve]
CC(=O)N1CCN(c2ccc(Nc3nc(C)nc4c3oc3ccccc34)cc2)CC1	0.398 µM [rising, full curve]
C=CCn1c(-c2ccccc2)nc2nc3ccccc3nc21	2.51 µM [rising, full curve]
COc1ccc(OC)c(CNC(=O)COc2cc(=O)n(C)c3ccccc23)c1	10 µM [rising, partial curve]
CCN1CCN(CC(O)COc2ccc(C)c(C)c2)CC1 (stereo not drawn)	0.126 µM [falling, full curve, poor fit]
O=C1C(=C2CCCCC2)SC(=S)N1Cc1ccco1	0.00316 µM [falling, full curve, poor fit]

3 entries out of the list, arranged by count of non-hydrogen atoms, falling.
SMILES	AC50
CCOCCn1c(N2CCN(c3ccc(OC)cc3)CC2)nc2c1c(=O)n(C)c(=O)n2C	12.6 µM [rising, single point]
COc1ccc(OC)c(CNC(=O)COc2cc(=O)n(C)c3ccccc23)c1	10 µM [rising, partial curve]
CCC(=O)/C=C1\Sc2ccc(OC)cc2N1CC	0.398 µM [rising, full curve, poor fit]
